The values below are quoted from earlier work in patent publication EP2439197A1, “Substituted benzimidazole derivatives as melanocortin 4 receptor antagonists” (Santhera Pharmaceuticals (Schweiz) AG, priority 2010, dated 2012).

For this data set the following is noted: control compounds of Caco-2 assay; Zhao et al. 2001; cited from earlier work.

Consider `CC(C)NCC(O)COc1ccc(CC(N)=O)cc1` (stereo not shown) [atenolol], for which the human absorption entry is “approximately 50%”.
